# Earlier results, collected in US6399581B1, “Compound possessing potent thrombin receptor antagonist activity” (Harbor Branch Oceanographic Institution, Inc., priority 1999, dated 2002).
# At least one structure is not confirmed: it was looked up by name or label, or the drawing left a doubt.
# Details: cited from earlier work
smiles,measurement,value
CC(C)CC(O)C[C@@H](C)[C@H]1CC=C2C3=C(CC[C@@]21C)[C@@]1(C)CC[C@H](O[C@@H]2O[C@H](CO)[C@H](O)[C@H](O)[C@H]2O[C@@H]2O[C@H](CO)[C@H](O)[C@H](O)[C@H]2O)[C@@H](C)[C@@H]1CC3 (stereo partly shown) [Eryloside A],Antifungal activity,antifungal activity
